Measured values reported in patent US20120083519A1.
Results are given in words; binding and its absence hold for the method and conditions named. For some assays here: In cells and extracts the contact can be indirect. Some entries that bind do so weakly or less than the wild type.

Sequences of proteins named here, by UniProt entry; tags and fusion partners are left off. A change or cut given only in a name is not applied to a line headed by its entry. Residues count along the entry.
UniProt P39688, residues 2-537: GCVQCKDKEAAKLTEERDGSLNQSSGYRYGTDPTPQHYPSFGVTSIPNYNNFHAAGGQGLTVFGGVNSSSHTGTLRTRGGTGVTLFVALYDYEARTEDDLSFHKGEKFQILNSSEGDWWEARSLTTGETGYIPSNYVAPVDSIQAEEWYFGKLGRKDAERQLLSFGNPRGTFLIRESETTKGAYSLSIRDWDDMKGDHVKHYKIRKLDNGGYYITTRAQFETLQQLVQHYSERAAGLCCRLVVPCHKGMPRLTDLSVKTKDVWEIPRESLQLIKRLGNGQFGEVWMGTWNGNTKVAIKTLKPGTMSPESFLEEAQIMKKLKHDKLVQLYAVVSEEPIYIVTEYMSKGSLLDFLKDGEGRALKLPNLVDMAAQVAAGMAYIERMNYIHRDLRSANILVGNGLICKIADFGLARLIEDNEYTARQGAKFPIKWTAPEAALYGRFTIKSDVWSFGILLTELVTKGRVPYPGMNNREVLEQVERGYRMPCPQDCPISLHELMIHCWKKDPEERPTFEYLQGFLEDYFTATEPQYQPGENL
UniProt P06241, residues 2-537: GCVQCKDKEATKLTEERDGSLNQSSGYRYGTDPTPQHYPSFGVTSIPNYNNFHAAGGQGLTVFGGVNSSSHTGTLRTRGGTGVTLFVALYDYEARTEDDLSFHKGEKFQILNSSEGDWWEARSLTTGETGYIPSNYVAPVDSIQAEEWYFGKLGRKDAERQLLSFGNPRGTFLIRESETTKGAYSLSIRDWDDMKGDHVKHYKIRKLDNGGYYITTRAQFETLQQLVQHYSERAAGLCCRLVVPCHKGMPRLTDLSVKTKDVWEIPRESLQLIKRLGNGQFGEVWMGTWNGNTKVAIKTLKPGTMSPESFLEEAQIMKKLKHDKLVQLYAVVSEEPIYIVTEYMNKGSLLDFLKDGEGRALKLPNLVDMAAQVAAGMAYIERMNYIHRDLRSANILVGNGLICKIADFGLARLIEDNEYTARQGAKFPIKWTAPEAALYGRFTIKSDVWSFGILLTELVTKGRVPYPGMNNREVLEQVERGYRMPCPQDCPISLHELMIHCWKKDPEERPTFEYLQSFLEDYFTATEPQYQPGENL
UniProt Q8IY22: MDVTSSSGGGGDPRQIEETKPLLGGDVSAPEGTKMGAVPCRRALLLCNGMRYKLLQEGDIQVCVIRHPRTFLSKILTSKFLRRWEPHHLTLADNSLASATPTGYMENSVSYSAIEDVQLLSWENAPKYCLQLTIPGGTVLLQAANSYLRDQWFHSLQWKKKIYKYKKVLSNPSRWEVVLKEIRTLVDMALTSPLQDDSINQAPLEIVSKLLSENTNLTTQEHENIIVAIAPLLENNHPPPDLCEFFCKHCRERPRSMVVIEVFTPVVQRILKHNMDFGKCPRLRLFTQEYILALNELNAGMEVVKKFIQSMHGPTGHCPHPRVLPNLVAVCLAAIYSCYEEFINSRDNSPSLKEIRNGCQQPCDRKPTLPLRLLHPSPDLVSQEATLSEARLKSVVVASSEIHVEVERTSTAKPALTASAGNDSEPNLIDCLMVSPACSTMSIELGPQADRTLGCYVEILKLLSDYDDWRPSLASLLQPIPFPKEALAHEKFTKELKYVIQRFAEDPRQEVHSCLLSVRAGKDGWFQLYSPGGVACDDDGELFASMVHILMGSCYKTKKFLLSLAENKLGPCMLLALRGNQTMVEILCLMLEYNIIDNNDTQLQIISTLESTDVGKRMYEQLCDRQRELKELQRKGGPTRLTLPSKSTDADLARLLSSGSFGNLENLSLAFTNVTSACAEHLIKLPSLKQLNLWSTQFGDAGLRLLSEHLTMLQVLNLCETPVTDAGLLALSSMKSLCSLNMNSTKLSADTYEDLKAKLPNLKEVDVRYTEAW

How the values were obtained:
[1] = biological target: Fyn, endogenous, mouse (glomerular extracts) (mouse) (UniProt P39688); assay: cross-immunoprecipitation, glomerular extracts of Tg(+) mice
[2] = biological target: endogenous Fyn of HEK cells (human) (UniProt P06241); assay: co-immunoprecipitation, HEK cells

- binding [1]: binds
- binding [2]: binds
Substance: C-mip protein (c-maf inducing protein), human, full-length (from UniProt Q8IY22 1-773)
